PubChem BioAssay AID493246, Drosophila RNAi Screening Center – 2011
The screen tested about 21,000 reagents; below is a random part of those with a known target gene and a result. Of all reagents, 429 (2%) got an active call. 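Values are raw and not normalised between plates; calls rest on per-plate z-scores that were not deposited.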 No sequences are given here. Not stated in the record: the amount of reagent, the time to read-out.

- Assay: 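Genes fly cells need to grow and stay alive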 (primary screen)
- System: Drosophila Kc and S2R+ cells
- Reagents: long dsRNA against Drosophila genes
- Detection: 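Raw, unnormalised count of remaining cells in each well; per-plate z-scores of cell number underlie the calls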
- Direction: Kc cell number and S2R+ cell number: higher = more cells remaining
- Call rule: 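Counted as a hit if cell number falls by a z-score of at least 3 within its plate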

| gene | dsRNA | Kc cell number, rep 1 | Kc cell number, rep 2 | S2R+ cell number, rep 1 | S2R+ cell number, rep 2 | activity call |
| --- | --- | --- | --- | --- | --- | --- |
| CG1146 (GeneID 38313) | DRSC08189 | 1.47e6 | 1.50e6 | 1.27e6 | 1.36e6 | inactive |
| CG10508 (GeneID 40342) | DRSC11612 | 1.64e6 | 1.73e6 | 1.34e6 | 1.37e6 | inactive |
| CG10508 (GeneID 40342) | DRSC11613 | 1.67e6 | 1.62e6 | 1.42e6 | 1.50e6 | inactive |
| Rfk (GeneID 40936) | DRSC15454 | 1.65e6 | 1.64e6 | 1.35e6 | 1.39e6 | inactive |
| CG32026 (GeneID 317829) | DRSC08950 | 1.40e6 | 1.52e6 | 1.12e6 | 1.23e6 | inactive |
| CG18596 (GeneID 42622) | DRSC15355 | 1.47e6 | 1.58e6 | 1.10e6 | 1.18e6 | inactive |
| CG14332 (GeneID 42098) | DRSC14811 | 1.30e6 | 1.36e6 | 1.10e6 | 1.24e6 | inactive |
| CG42331 (GeneID 42948) | DRSC16126 | 1.53e6 | 1.45e6 | 9.26e5 | 1.07e6 | inactive |
| Nos (GeneID 34495) | DRSC03381 | 1.27e6 | 1.34e6 | 1.10e6 | 1.10e6 | inactive |
| Idgf3 (GeneID 34981) | DRSC03351 | 1.36e6 | 1.51e6 | 1.26e6 | 1.26e6 | inactive |
| Ae2 (GeneID 39147) | DRSC10969 | 1.44e6 | 1.55e6 | 1.25e6 | 1.09e6 | inactive |
| Vav (GeneID 32920) | DRSC20384 | 1.59e6 | 1.59e6 | 1.12e6 | 1.30e6 | inactive |
| Faa (GeneID 45577) | DRSC08451 | 1.37e6 | 1.47e6 | 1.31e6 | 1.21e6 | inactive |
| CG14570 (GeneID 40416) | DRSC11731 | 1.38e6 | 1.42e6 | 1.30e6 | 1.47e6 | inactive |
| Nepl18 (GeneID 43410) | DRSC14879 | 1.52e6 | 1.55e6 | 1.09e6 | 1.17e6 | inactive |
| Atf3 (GeneID 43867) | DRSC17225 | 1.32e6 | 1.51e6 | 6.83e5 | 7.66e5 | active |
| CG32645 (GeneID 32264) | DRSC19683 | 1.65e6 | 1.70e6 | 1.05e6 | 1.25e6 | inactive |
| CG32645 (GeneID 32264) | DRSC19889 | 1.58e6 | 1.64e6 | 1.06e6 | 1.17e6 | inactive |
| CG10584 (GeneID 40324) | DRSC11624 | 1.36e6 | 1.33e6 | 1.36e6 | 1.47e6 | inactive |
| Prosalpha2 (GeneID 41531) | DRSC16798 | 9.76e5 | 1.05e6 | 6.39e5 | 7.48e5 | active |
| ND-51L2 (GeneID 36695) | DRSC07080 | 1.54e6 | 1.55e6 | 1.30e6 | 1.40e6 | inactive |
| mRpS11 (GeneID 42061) | DRSC15732 | 1.25e6 | 1.28e6 | 1.04e6 | 1.16e6 | inactive |
| CG9150 (GeneID 33856) | DRSC03148 | 1.52e6 | 1.43e6 | 1.17e6 | 1.32e6 | inactive |
| Pgam5-2 (GeneID 37899) | DRSC04278 | 1.47e6 | 1.54e6 | 1.31e6 | 1.33e6 | inactive |
| Trm1 (GeneID 34656) | DRSC02951 | 1.29e6 | 1.34e6 | 1.16e6 | 1.20e6 | inactive |
| CG5267 (GeneID 36875) | DRSC06928 | 1.59e6 | 1.56e6 | 1.22e6 | 1.34e6 | inactive |
| ACXE (GeneID 53426) | DRSC00847 | 1.52e6 | 1.55e6 | 1.31e6 | 1.41e6 | inactive |
| beat-Vc (GeneID 41575) | DRSC12927 | 1.43e6 | 1.85e6 | 1.07e6 | 1.19e6 | inactive |
| beat-Vc (GeneID 41575) | DRSC14849 | 1.93e6 | 1.96e6 | 1.31e6 | 1.41e6 | inactive |
| CG13962 (GeneID 35270) | DRSC02304 | 1.58e6 | 1.63e6 | 1.24e6 | 2.72e5 | inactive |
| CG13609 (GeneID 42883) | DRSC14612 | 1.49e6 | 1.78e6 | 1.09e6 | 1.19e6 | inactive |
| GlnRS (GeneID 45786) | DRSC14140 | 5.42e5 | – | 8.37e5 | – | inactive |
| Acp29AB (GeneID 34162) | DRSC01857 | 1.69e6 | 1.76e6 | 9.14e5 | 1.16e6 | inactive |
| Reps (GeneID 34542) | DRSC02940 | 1.55e6 | 1.64e6 | 1.24e6 | 1.40e6 | inactive |
| Atf-2 (GeneID 37978) | DRSC04130 | 1.29e6 | 1.44e6 | 1.02e6 | 1.23e6 | inactive |
| CG12341 (GeneID 36137) | DRSC06133 | 1.61e6 | 1.68e6 | 1.31e6 | 1.48e6 | inactive |
| Pdfr (GeneID 31234) | DRSC18614 | 1.40e6 | 1.36e6 | 9.12e5 | 9.61e5 | inactive |
| CG30379 (GeneID 246578) | DRSC05070 | 1.47e6 | 1.53e6 | 1.01e6 | 1.07e6 | inactive |
| Bka (GeneID 46032) | DRSC02757 | 1.65e6 | 1.62e6 | 1.27e6 | 1.42e6 | inactive |
| prage (GeneID 31136) | DRSC17957 | 1.36e6 | 1.41e6 | 1.01e6 | 1.06e6 | inactive |
| prage (GeneID 31136) | DRSC17958 | 3.00e5 | – | 4.88e5 | – | active |
| prage (GeneID 31136) | DRSC18490 | 1.46e6 | 1.42e6 | 1.02e6 | 1.02e6 | inactive |
| prage (GeneID 31136) | DRSC18497 | 1.46e6 | 1.42e6 | 9.88e5 | 1.11e6 | inactive |
| CheA7a (GeneID 31672) | DRSC17965 | 1.55e6 | 1.59e6 | 1.11e6 | 1.27e6 | inactive |
| CG31735 (GeneID 318922) | DRSC01518 | 1.57e6 | 1.54e6 | 9.63e5 | 1.20e6 | inactive |
| Mur89F (GeneID 42080) | DRSC15544 | 1.36e6 | 1.42e6 | 1.24e6 | 1.36e6 | inactive |
| Nipsnap (GeneID 32573) | DRSC20169 | 5.94e5 | – | 9.08e5 | – | inactive |
| Ku80 (GeneID 34930) | DRSC02699 | 1.58e6 | 1.60e6 | 1.32e6 | 1.47e6 | inactive |
| lms (GeneID 37322) | DRSC06387 | 1.60e6 | 1.40e6 | 9.91e5 | 1.24e6 | inactive |
| Alr (GeneID 32991) | DRSC19469 | 1.61e6 | 1.77e6 | 1.10e6 | 1.29e6 | inactive |
| ocn (GeneID 43567) | DRSC17020 | 1.52e6 | 1.56e6 | 1.14e6 | 1.23e6 | inactive |
| Gnpnat (GeneID 43504) | DRSC15405 | 5.61e5 | – | 8.45e5 | – | inactive |
| CG15471 (GeneID 31412) | DRSC18054 | 1.71e6 | 1.71e6 | 1.08e6 | 1.18e6 | inactive |
| Tsp42Ej (GeneID 35620) | DRSC06113 | 1.28e6 | 1.42e6 | 1.19e6 | 1.10e6 | inactive |
| CG1314 (GeneID 33066) | DRSC20495 | 1.47e6 | 1.52e6 | 1.05e6 | 1.15e6 | inactive |
| Obp99b (GeneID 43497) | DRSC16264 | 1.27e6 | 1.27e6 | 8.63e5 | 9.63e5 | inactive |
| CG2233 (GeneID 31721) | DRSC18217 | 5.43e5 | – | 8.85e5 | – | inactive |
| pigs (GeneID 31596) | DRSC17472 | 1.12e6 | 1.48e6 | 1.14e6 | 1.20e6 | inactive |
| pigs (GeneID 31596) | DRSC18334 | 1.55e6 | 1.51e6 | 1.02e6 | 1.15e6 | inactive |
| pigs (GeneID 31596) | DRSC18335 | 1.53e6 | 1.50e6 | 1.00e6 | 1.08e6 | inactive |

Entries above whose target name starts with P or p:
| gene | dsRNA | Kc cell number, rep 1 | Kc cell number, rep 2 | S2R+ cell number, rep 1 | S2R+ cell number, rep 2 | activity call |
| --- | --- | --- | --- | --- | --- | --- |
| Prosalpha2 (GeneID 41531) | DRSC16798 | 9.76e5 | 1.05e6 | 6.39e5 | 7.48e5 | active |
| Pgam5-2 (GeneID 37899) | DRSC04278 | 1.47e6 | 1.54e6 | 1.31e6 | 1.33e6 | inactive |
| Pdfr (GeneID 31234) | DRSC18614 | 1.40e6 | 1.36e6 | 9.12e5 | 9.61e5 | inactive |
| prage (GeneID 31136) | DRSC17957 | 1.36e6 | 1.41e6 | 1.01e6 | 1.06e6 | inactive |
| prage (GeneID 31136) | DRSC17958 | 3.00e5 | – | 4.88e5 | – | active |
| prage (GeneID 31136) | DRSC18490 | 1.46e6 | 1.42e6 | 1.02e6 | 1.02e6 | inactive |
| prage (GeneID 31136) | DRSC18497 | 1.46e6 | 1.42e6 | 9.88e5 | 1.11e6 | inactive |
| pigs (GeneID 31596) | DRSC17472 | 1.12e6 | 1.48e6 | 1.14e6 | 1.20e6 | inactive |
| pigs (GeneID 31596) | DRSC18334 | 1.55e6 | 1.51e6 | 1.02e6 | 1.15e6 | inactive |
| pigs (GeneID 31596) | DRSC18335 | 1.53e6 | 1.50e6 | 1.00e6 | 1.08e6 | inactive |
